In PubChem BioAssay AID540355 (National Center for Advancing Translational Sciences (NCATS), 2011):
This list was built around the results that the source calls inconclusive (neither active nor inactive); the mix of calls is not that of the screen. Where the call is inconclusive, the potency comes from a doubtful curve fit. The source made the active and inactive calls. Calls come from the whole dose curve; as a rule, active = well fitted inhibition curve with a large enough effect; inconclusive = small, poorly fitted or top-dose-only effect; inactive = no such curve, though single readings can be large or run the other way.

These compounds were tested against 4'-phosphopantetheinyl transferase Sfp (Bacillus subtilis (strain 168)) (UniProt P39135) (assay: Gel-Based Assay for Inhibitos of Bacillus subtilis Sfp phosphopantetheinyl transferase (PPTase): Chemistry Optimization Followup). Conditions: purified Sfp PPTase, gel-based product detection; series mostly up to 250 µM.
Excerpt: The covalent attachment of a phosphopantetheinyl (4'-PP) arm to a variety of synthases and other proteins is a key posttranslational protein modification. The 4'-PP is installed on the proteins post-translationally from coenzyme A (CoA) on a conserved serine residue by action of phosphopantetheinyl transferase (PPTase) enzymes. Phosphopantetheinylation is essential for synthase activity, and removal of the PPTase gene precludes natural product synthesis in microorganisms, or in the case of fatty acid biosynthesis, renders the organism unviable. PPTase enzymes belong to a distinct structural superfamily. Within bacteria, these enzymes are grouped into two classes based upon primary structure, the AcpS-Type and Sfp-Type PPTases.
Sfp-type PPTases, corresponding to an activator of surfactin production in Bacillus subtilis, are responsible for modifying type I polyketide and nonribosomal peptide synthases of prokaryotes. Sfp-type PPTases are responsible for the activation of a variety of pathogen-associated virulence factors. Among these compounds are toxins such as mycolactone from Mycobacterium ulcerans, siderophores such as vibriobactin from Vibrio cholerae or mycobactin from Mycobacterium tuberculosis, as well as the mycolic acids which form the waxy cell wall of Mycobacteria. The biosyntheses of these natural products are considered attractive targets for drug design.
In this assay, compounds were evaluated by monitoring of fluorescence transfer to whole carrier protein substrates via polyacrylamide gel electrophoresis. See Yasgar, et al. (PMID: 20094656) for further details on assay. This assay was used to evaluate follow-up compounds from the primary screen (AID: 1490).
NIH Chemical Genomics Center [NCGC]
NIH Molecular Libraries Probe Centers Network [MLPCN]
Assay Submitter (PI): Michael Burkart, University of California, San Diego
A DMSO solution of confirmed hits (0.5 microL) was added to a 1.33X enzyme solution (15 microL, containing 26.6 nM Sfp, 66 mM HEPES, 13.3 mM MgCl2, 0.0133% NP-40, 0.133% BSA, pH 7.6). After a 10 minute incubation, the enzymatic reaction was initiated by the addition of 4 X substrate solution (4 microL, containing 50 microM Rhodamine CoA and 50 microM apo-Actinorhodin-ACP). The reactions were terminated after a 30 minute incubation at room temperature by the addition of 2X quench solution (20 microL, containing 4 M Urea, 25 mM EDTA, 0.004% phenol red, pH 8.0). Samples were separated under native conditions on a 20% polyacrylamide gel using standard Laemmli conditions. Following the run, gels were imaged with a Chemi-Doc Plus imager (Bio-Rad, Hercules, CA) and band intensity quantified using the ImageJ software package. Pixel density values were normalized to control wells (SCH202676) and fit with the 4-parameter Hill equation using in-house tools.

Compound | Potency
Cc1cc(C)nc(NC(=S)N2CCN(c3ccc(Cl)c(Cl)c3Cl)CC2)c1 | inconclusive: 15.8 µM [inhibitor, full curve]
Cc1cc(C)nc(NC(=S)N2CCN(c3ccc(Cl)nn3)CC2)c1 | inconclusive: 6.31 µM [inhibitor, full curve]
Cc1ccnc(N=C(N)N2CCN(c3cccc(C(F)(F)F)c3)CC2)c1 | inactive
COc1cc(NC(=S)N2CCN(c3cccc(C(F)(F)F)c3)CC2)nc2ccccc12 | active: 0.794 µM
Cc1cc(C)nc(NC(=S)N2CCN(c3ccc(NS(C)(=O)=O)nn3)CC2)c1 | inconclusive: 31.6 µM [inhibitor, partial curve]
Cc1cc(C)nc(NC(=S)N2CCN(Cc3c(F)cccc3Cl)CC2)c1 | inactive
